Experimental data published in article doi:10.1101/2020.03.15.992727.
These are yes or no findings as the source states them, for the method shown. Binding seen in cells or lysates may run through a third protein. Some binding calls cover weakened binding; strength is not graded here. Where a sequence is shown, tags or fusion partners need not be part of it.

Sequences of proteins named here, by UniProt entry; tags and fusion partners are left off. A change or cut given only in a name is not applied to a line headed by its entry.
UniProt P56962, whole entry: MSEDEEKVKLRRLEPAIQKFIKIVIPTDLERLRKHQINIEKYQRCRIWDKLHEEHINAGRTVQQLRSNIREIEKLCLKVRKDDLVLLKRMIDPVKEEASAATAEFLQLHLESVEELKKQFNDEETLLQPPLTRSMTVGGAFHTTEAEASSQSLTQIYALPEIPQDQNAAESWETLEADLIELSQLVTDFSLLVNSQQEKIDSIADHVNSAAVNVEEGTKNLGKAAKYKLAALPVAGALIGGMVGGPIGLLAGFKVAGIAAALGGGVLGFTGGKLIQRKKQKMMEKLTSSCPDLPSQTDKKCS

T1: GFP-tagged wild-type (WT) human Ykt6 (human) (UniProt O15498)
T1 sequence: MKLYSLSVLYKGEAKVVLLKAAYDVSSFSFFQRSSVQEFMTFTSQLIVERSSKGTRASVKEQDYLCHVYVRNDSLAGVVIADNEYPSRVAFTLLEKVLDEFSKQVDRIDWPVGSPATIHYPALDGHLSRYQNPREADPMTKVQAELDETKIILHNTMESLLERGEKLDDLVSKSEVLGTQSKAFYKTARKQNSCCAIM

T2: GFP-tagged human Ykt6 phospho-ablative mutant (S174A) (human) (UniProt O15498)
T2 sequence: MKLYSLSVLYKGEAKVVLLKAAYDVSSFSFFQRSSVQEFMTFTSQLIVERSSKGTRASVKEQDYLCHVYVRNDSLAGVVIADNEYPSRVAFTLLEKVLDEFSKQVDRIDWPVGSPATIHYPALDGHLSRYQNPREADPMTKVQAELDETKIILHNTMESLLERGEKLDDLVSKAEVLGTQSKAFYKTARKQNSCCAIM

T3: N-terminal half of Venus fused to Ykt6 Longin domain (human) (UniProt O15498)
T3 sequence: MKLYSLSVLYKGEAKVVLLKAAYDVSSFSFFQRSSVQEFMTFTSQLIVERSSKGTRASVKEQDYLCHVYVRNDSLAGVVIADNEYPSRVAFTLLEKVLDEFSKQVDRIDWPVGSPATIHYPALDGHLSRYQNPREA

B1: C-terminal half of Venus fused to Ykt6 SNARE domain, wild type (domain or fragment, UniProt O15498 137-193)
chain: DPMTKVQAELDETKIILHNTMESLLERGEKLDDLVSKSEVLGTQSKAFYKTARKQNS
B2: C-terminal half of Venus fused to Ykt6 SNARE domain, phospho-ablative (S174A) (domain or fragment, UniProt O15498 137-193)
chain: DPMTKVQAELDETKIILHNTMESLLERGEKLDDLVSKAEVLGTQSKAFYKTARKQNS

Legend:
[1] = target: T1, GFP-tagged wild-type (WT) human Ykt6 (human); test: co-IP
[2] = target: T2, GFP-tagged human Ykt6 phospho-ablative mutant (S174A) (human); test: co-IP
[3] = target: T3, N-terminal half of Venus fused to Ykt6 Longin domain (human); test: split reporter

Molecule	binding [1]	binding [2]	binding [3]
Stx17 (from UniProt P56962 1-302)	binds weakly	binds	–
B1	–	–	binds
B2	–	–	binds
